These are yes or no findings as the source states them, for the method shown. In cells and extracts the contact can be indirect. Some results given as binding are weak or reduced against the parent protein; the word gives no strength. Sequences can lack the tags named with a protein.
Target: c-myc (UniProt P01106)
Experiment: co-IP; HeLa cells transiently transfected with V5cdr2 and c-myc, arrested in G1/S or G2/M; extracts immunoprecipitated with anti-c-myc (C3956) or control anti-HA, blotted with anti-V5

By UniProt entry, the sequences of proteins in these tests, tags left out.
UniProt P01106: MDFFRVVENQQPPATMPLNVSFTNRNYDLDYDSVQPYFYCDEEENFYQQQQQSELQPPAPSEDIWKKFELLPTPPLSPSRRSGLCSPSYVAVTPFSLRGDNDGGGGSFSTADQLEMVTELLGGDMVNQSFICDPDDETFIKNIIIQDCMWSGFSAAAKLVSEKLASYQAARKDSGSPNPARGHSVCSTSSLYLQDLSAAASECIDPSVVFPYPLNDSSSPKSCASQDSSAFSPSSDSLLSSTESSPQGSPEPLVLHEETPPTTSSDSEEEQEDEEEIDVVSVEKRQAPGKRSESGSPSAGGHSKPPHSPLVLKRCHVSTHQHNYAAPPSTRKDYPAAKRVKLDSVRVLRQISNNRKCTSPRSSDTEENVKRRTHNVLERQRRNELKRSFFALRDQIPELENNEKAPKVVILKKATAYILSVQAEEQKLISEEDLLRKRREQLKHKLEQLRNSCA

B1: V5cdr2 (V5-tagged cerebellar-degeneration-related antigen-2) (protein, UniProt Q01850 1-454)
chain: MLAENLVEEFEMKEDEPWYDHQDLQQDLQLAAELGKTLLDRNTELEDSVQQMYTTNQEQLQEIEYLTKQVELLRQMNEQHAKVYEQLDVTARELEETNQKLVADSKASQQKILSLTETIECLQTNIDHLQSQVEELKSSGQGRRSPGKCDQEKPAPSFACLKELYDLRQHFVYDHVFAEKITSLQGQPSPDEEENEHLKKTVTMLQAQLSLERQKRVTMEEEYGLVLKENSELEQQLGATGAYRARALELEAEVAEMRQMLQSEHPFVNGVEKLVPDSLYVPFKEPSQSLLEEMFLTVPESHRKPLKRSSSETILSSLAGSDIVKGHEETCIRRAKAVKQRGISLLHEVDTQYSALKVKYEELLKKCQEEQDSLSHKAVQTSRAAAKDLTGVNAQSEPVASGWELASVNPEPVSSPTTPPEYKALFKEIFSCIKKTKQEIDEQRTKYRSLSSHS
- binding: binds

Source: publication PMC2850929
